Patent US20240148707A1, “MODULATION OF DRUG-DRUG INTERACTIONS OF VADADUSTAT” (Akebia Therapeutics, Inc., priority 2021, published 2024)
Some results were stated once for a whole list of compounds, not compound by compound. For at least one compound, name, drawing or mass did not settle the structure.

Test: [14C]-labeled Compound 1 metabolism and excretion study in healthy adult males
Format: in vivo, human
Details: single dose 650 mg [14C]-labeled Compound 1
Description: The urinary excretion rate of this drug and acyl glucuronide is less than 1% of the total radioactivity.

Structure (SMILES) | urinary excretion rate, of the total radioactivity
O=C(O)CNC(=O)c1ncc(-c2cccc(Cl)c2)cc1O [Compound 1, {[5-(3-chlorophenyl)-3-hydroxypyridine-2-carbonyl]amino}acetic acid] | less than 1%
O=C(CNC(=O)c1ncc(-c2cccc(Cl)c2)cc1O)OC1OC(C(=O)O)C(O)C(O)C1O (centres unmarked) [acyl glucuronide] | less than 1%
